Experimental data: PubChem BioAssay AID1117269 (University of Michigan, 2014)
Aim: 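Kinome-wide knockdown screen for regulators of TGF-beta reporter output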 (primary screen). Cells: human A549 lung cancer and 1833 breast cancer (MDA-MB-231-derived) cell lines carrying a stable BTR luciferase reporter. Knock-down reagent: siRNA pool against human genes. Duration: 72 h after transfection, then 1 h TGF-beta before the read. Challenge: TGF-beta 10 ng/mL added one hour before luciferin and read-out. Read-out: 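Live-cell BTR luciferase signal at 72 h after transfection and 1 h of TGF-beta at 10 ng/mL, fold versus scrambled siRNA, triplicate mean for each line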. Direction: fold over scrambled siRNA, A549 and fold over scrambled siRNA, 1833: higher = more reporter light, weaker TGF-beta receptor signalling. Hit rule: 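Active if a hit in A549 or 1833; a line's hit exceeds an upper quartile-based cutoff on mean log fold values, applied per plate and across the whole screen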. Meaning of the calls: active = hit in at least one line; inactive = hit in neither line.
This is an unselected part of 714 reagents. In the full data, 49 (6.9%) were called active. 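Active means a hit in at least one line; per-line hit columns show which; some siRNA pools appear more than once.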 Unmarked entries are inactive. Not stated in the record: the amount of reagent.

After knock-down of STK24 (GeneID 8428) the results were fold over scrambled siRNA, A549 = 2.01; fold over scrambled siRNA, 1833 = 2.2; hit in A549 = not a hit in A549; hit in 1833 = not a hit in 1833. Silencing of STK33 (GeneID 65975) gave: fold over scrambled siRNA, A549 = 3.57; fold over scrambled siRNA, 1833 = 7.04; hit in A549 = not a hit in A549; hit in 1833 = not a hit in 1833. CALM1 (GeneID 801) gave fold over scrambled siRNA, A549 = 4.64; fold over scrambled siRNA, 1833 = 5.33; hit in A549 = not a hit in A549; hit in 1833 = not a hit in 1833. After knock-down of TPK1 (GeneID 27010), the record shows fold over scrambled siRNA, A549 = 0.821; fold over scrambled siRNA, 1833 = 0.519; hit in A549 = not a hit in A549; hit in 1833 = not a hit in 1833. Silencing of TNK2 (GeneID 10188) resulted in: fold over scrambled siRNA, A549 = 2.02; fold over scrambled siRNA, 1833 = 1.05; hit in A549 = not a hit in A549; hit in 1833 = not a hit in 1833. PKIB (GeneID 5570) scored fold over scrambled siRNA, A549 = 2.49; fold over scrambled siRNA, 1833 = 1.3; hit in A549 = not a hit in A549; hit in 1833 = not a hit in 1833.

DYRK1B (GeneID 9149) scored fold over scrambled siRNA, A549 = 1.74; fold over scrambled siRNA, 1833 = 4.9; hit in A549 = not a hit in A549; hit in 1833 = not a hit in 1833. Silencing of CSK (GeneID 1445) resulted in: fold over scrambled siRNA, A549 = 0.955; fold over scrambled siRNA, 1833 = 4.73; hit in A549 = not a hit in A549; hit in 1833 = not a hit in 1833. For PDK2 (GeneID 5164), the entry reads fold over scrambled siRNA, A549 = 2.44; fold over scrambled siRNA, 1833 = 2.47; hit in A549 = not a hit in A549; hit in 1833 = not a hit in 1833. Silencing of TEK (GeneID 7010) resulted in: fold over scrambled siRNA, A549 = 2.81; fold over scrambled siRNA, 1833 = 4.73; hit in A549 = not a hit in A549; hit in 1833 = not a hit in 1833. Knock-down of ADPGK (GeneID 83440) came out at: fold over scrambled siRNA, A549 = 1.79; fold over scrambled siRNA, 1833 = 1.13; hit in A549 = not a hit in A549; hit in 1833 = not a hit in 1833. Depletion of TSSK3 (GeneID 81629) gave: fold over scrambled siRNA, A549 = 3.6; fold over scrambled siRNA, 1833 = 1.62; hit in A549 = not a hit in A549; hit in 1833 = not a hit in 1833.

With knock-down of ROS1 (GeneID 6098), the record shows fold over scrambled siRNA, A549 = 4.67; fold over scrambled siRNA, 1833 = 2.6; hit in A549 = not a hit in A549; hit in 1833 = not a hit in 1833. After knock-down of MYO3A (GeneID 53904), the record shows fold over scrambled siRNA, A549 = 0.74; fold over scrambled siRNA, 1833 = 6.67; hit in A549 = not a hit in A549; hit in 1833 = not a hit in 1833. Against NEK7 (GeneID 140609), the entry reads fold over scrambled siRNA, A549 = 4; fold over scrambled siRNA, 1833 = 5.19; hit in A549 = not a hit in A549; hit in 1833 = not a hit in 1833. PINK1 (GeneID 65018) showed fold over scrambled siRNA, A549 = 1.2; fold over scrambled siRNA, 1833 = 1.8; hit in A549 = not a hit in A549; hit in 1833 = not a hit in 1833. INSR (GeneID 3643) gave fold over scrambled siRNA, A549 = 2.7; fold over scrambled siRNA, 1833 = 7; hit in A549 = not a hit in A549; hit in 1833 = not a hit in 1833. After knock-down of CERK (GeneID 64781) the results were fold over scrambled siRNA, A549 = 1.89; fold over scrambled siRNA, 1833 = 7.47; hit in A549 = not a hit in A549; hit in 1833 = not a hit in 1833.

DMPK (GeneID 1760) scored fold over scrambled siRNA, A549 = 1.9; fold over scrambled siRNA, 1833 = 1.36; hit in A549 = not a hit in A549; hit in 1833 = not a hit in 1833. Silencing of SGK1 (GeneID 6446) gave: fold over scrambled siRNA, A549 = 5.11; fold over scrambled siRNA, 1833 = 4.56; hit in A549 = not a hit in A549; hit in 1833 = not a hit in 1833. Silencing of SLK (GeneID 9748) gave: fold over scrambled siRNA, A549 = 2.48; fold over scrambled siRNA, 1833 = 5.56; hit in A549 = not a hit in A549; hit in 1833 = not a hit in 1833. CKS2 (GeneID 1164) showed fold over scrambled siRNA, A549 = 3.81; fold over scrambled siRNA, 1833 = 6.03; hit in A549 = not a hit in A549; hit in 1833 = not a hit in 1833. After knock-down of PACSIN1 (GeneID 29993) the results were fold over scrambled siRNA, A549 = 1.84; fold over scrambled siRNA, 1833 = 2.77; hit in A549 = not a hit in A549; hit in 1833 = not a hit in 1833. CDK17 (GeneID 5128) gave fold over scrambled siRNA, A549 = 2.48; fold over scrambled siRNA, 1833 = 6.56; hit in A549 = not a hit in A549; hit in 1833 = not a hit in 1833.

MAP2K7 (GeneID 5609) showed fold over scrambled siRNA, A549 = 1.54; fold over scrambled siRNA, 1833 = 2.6; hit in A549 = not a hit in A549; hit in 1833 = not a hit in 1833. EPHA7 (GeneID 2045) scored fold over scrambled siRNA, A549 = 2.5; fold over scrambled siRNA, 1833 = 7.33; hit in A549 = not a hit in A549; hit in 1833 = not a hit in 1833. Against GTF2H1 (GeneID 2965), the entry reads fold over scrambled siRNA, A549 = 2.96; fold over scrambled siRNA, 1833 = 0.889; hit in A549 = not a hit in A549; hit in 1833 = not a hit in 1833.

2 entries from above, reformatted.
{"gene": "DMPK (GeneID 1760)", "fold over scrambled siRNA, A549": 1.9, "fold over scrambled siRNA, 1833": 1.36, "hit in A549": "not a hit in A549", "hit in 1833": "not a hit in 1833"}
{"gene": "SGK1 (GeneID 6446)", "fold over scrambled siRNA, A549": 5.11, "fold over scrambled siRNA, 1833": 4.56, "hit in A549": "not a hit in A549", "hit in 1833": "not a hit in 1833"}
